According to ChEMBL document CHEMBL1908105, “UDP-glucuronosyltransferases and clinical drug-drug interactions” (Pharmacol Ther, 2005):

Key:
[1] = Inhibition of AZT glucuronidation by human UGT enzymes from liver microsomes; design: species or system Microsome
[2] = Inhibition of codeine glucuronidation by human UGT enzymes from liver microsomes; design: species or system Microsome

CN1CC[C@]23c4c5ccc(O)c4O[C@H]2[C@@H](O)C=C[C@H]3[C@H]1C5 [MORPHINE]
Ki [1]: 900 µM | Ki [2]: 3600 µM
